Whole data set: some 1,100 compounds, median “Wnt reporter firefly/Renilla luciferase ratio relative to plate median” near 1.1, cut for the highest 2% near 1.6. The entries are a selection whose mix differs from that of the whole data set.
Test system: HEK293T (UBE3A T485A transfected, BAR Wnt reporter)
Experiment: Wnt reporter firefly/Renilla luciferase ratio relative to plate median (fold (linear ratio)); higher = more Wnt/beta-catenin reporter activation
Settings: 24 h
Procedure, shortened: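 Chemicals at 0.01–100 uM were left on transfected HEK293T cells for 24 h, after a four-hour wait following transfection. The cells held a BAR firefly luciferase Wnt reporter, TK-Renilla and an expression plasmid. Wnt activity, as the firefly/Renilla ratio from a Dual-Glo luciferase readout, and cell health, as raw Renilla, were median-centred within each plate. Results average four biological replicates.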

Compound | Wnt reporter firefly/Renilla luciferase ratio (concentration: 0.01 uM) | Wnt reporter firefly/Renilla luciferase ratio (concentration: 0.1 uM) | Wnt reporter firefly/Renilla luciferase ratio (concentration: 1 uM) | Wnt reporter firefly/Renilla luciferase ratio (concentration: 10 uM) | Wnt reporter firefly/Renilla luciferase ratio (concentration: 100 uM)
CN(C)C(=O)Nc1cccc(C(F)(F)F)c1 [Fluometuron] | 1.3 | 1.43 | 1.1 | 0.996 | 1.04
N#Cc1ccc(N(CC(N)=O)CC(F)(F)F)cc1C(F)(F)F | – | 0.925 | 0.896 | 0.684 | 0.562
CC(C)(C)C(O)/C(=C\c1ccc(Cl)cc1Cl)n1cncn1 (stereo not drawn) [Diniconazole] | 1.09 | 1.05 | 0.977 | 0.744 | –
CCN(CC)CCO [N,N-Diethylethanolamine] | – | 1.01 | 1.07 | 0.956 | 1.44
COc1cc2c(c(OC)c1OC)-c1ccc(OC)c(=O)cc1[C@@H](NC(C)=O)CC2 [Colchicine] | – | 0.867 | – | – | –
FC(F)C(F)(F)OCC(Cn1cncn1)c1ccc(Cl)cc1Cl (stereo not drawn) [Tetraconazole] | 0.973 | 0.814 | 1.03 | 0.808 | –
CCC(C)c1ccc(O)cc1 (stereo not drawn) [4-(Butan-2-yl)phenol] | – | 0.977 | 0.934 | 1.18 | 1.1
CCOP(=O)(OCC)Oc1nc(Cl)c(Cl)cc1Cl [Chlorpyrifos oxon] | 0.967 | 0.876 | 1.02 | 0.861 | 0.591
CCNc1nc(Cl)nc(NC(C)C)n1 [Atrazine] | 1.45 | 1.38 | 1.15 | 1.29 | 1.18
Oc1cc(Cl)ccc1Oc1ccc(Cl)cc1Cl [Triclosan] | 1.17 | 1.13 | 1.02 | 1.06 | 0.692
CS/C(C)=N/OC(=O)N(C)SN(C)C(=O)O/N=C(\C)SC [Thiodicarb] | – | 1.86 | – | – | –
CCCCCCCCCc1ccc(O)cc1 [4-Nonylphenol, branched] | – | 1.17 | 1.09 | 0.969 | 1.71
Cc1ccc([N+](=O)[O-])cc1N [2-Methyl-5-nitroaniline] | – | 0.875 | 0.846 | 0.995 | 0.931
CCC(C)(CC)c1cc(NC(=O)c2c(OC)cccc2OC)on1 [Isoxaben] | 1.21 | 1.06 | 1.09 | 0.952 | 0.423
CC(C)(C)c1ccccc1O [2-tert-Butylphenol] | – | 1.53 | 1.54 | 1.25 | 0.813
Nc1c(Cl)cc([N+](=O)[O-])cc1Cl [Dicloran] | 1.85 | 1.64 | – | – | –
Cc1ccc(O)cc1C [3,4-Dimethylphenol] | – | 0.817 | 0.98 | 1.07 | 1.4
C[N+]1(C)CCCCC1.[Cl-] [Mepiquat chloride] | 0.721 | 0.838 | 0.918 | 1.18 | 1.04
CNc1cnn(-c2cccc(C(F)(F)F)c2)c(=O)c1Cl [Norflurazon] | 1.24 | 1.47 | 1.14 | 1.02 | 0.762
CCC(=O)C(CC(C)N(C)C)(c1ccccc1)c1ccccc1.Cl (stereo not drawn) [Methadone hydrochloride] | – | 1.33 | 1.03 | 1.13 | 0.271
ClC(Cl)=C(c1ccc(Cl)cc1)c1ccc(Cl)cc1 | – | 1.14 | 1.06 | 1.14 | 1.55
CCOP(=O)(NC(C)C)Oc1ccc(SC)c(C)c1 (stereo not drawn) [Fenamiphos] | 0.946 | 0.758 | 0.93 | 0.83 | 0.243
CNC(=O)N(C)c1nnc(C(C)(C)C)s1 [Tebuthiuron] | 1.35 | 1.39 | 1.32 | 1.67 | 1.5

Compound | Wnt reporter firefly/Renilla luciferase ratio (concentration: 0.01 uM) | Wnt reporter firefly/Renilla luciferase ratio (concentration: 0.1 uM) | Wnt reporter firefly/Renilla luciferase ratio (concentration: 1 uM) | Wnt reporter firefly/Renilla luciferase ratio (concentration: 10 uM) | Wnt reporter firefly/Renilla luciferase ratio (concentration: 100 uM)
[N-]=[N+]=[N-].[Na+] [Sodium Azide] | 0.757 | – | 1.04 | 0.927 | –
[N-]=[N+]=[N-].[Na+] [Sodium azide] | – | 0.827 | – | – | 0.529
CCCCOCN(C(=O)CCl)c1c(CC)cccc1CC [Butachlor] | 1.17 | 1.2 | 1.02 | 0.788 | 0.293
CSC1=N[C@@](C)(c2ccccc2)C(=O)N1Nc1ccccc1 [Fenamidone] | 1.15 | 1.22 | 1.07 | 0.523 | 0.391
Cc1cc2c3c(c1)C(c1ccccc1)=N[C@@H](NC(=O)c1ccncc1)C(=O)N3CC2 | – | 1.17 | 1.15 | 1.35 | 0.366
CC(C)(C)c1cc(C(C)(C)C)c(O)c(C(C)(C)C)c1 [2,4,6-Tris(tert-butyl)phenol] | – | 0.958 | 0.98 | 0.697 | 0.822
NCCO.O=C(O)c1nc(Cl)ccc1Cl [Clopyralid-olamine] | 0.868 | 0.94 | 1.18 | 1.56 | 2.61
N#Cc1cccnc1 [3-Pyridinecarbonitrile] | – | 0.974 | 1.13 | 1.25 | 1.35
O=C(O)C(F)(F)C(F)(F)C(F)(F)C(F)(F)C(F)(F)C(F)(F)C(F)(F)C(F)(F)F | – | 1.29 | 0.95 | 1.12 | 0.369
O=C(N[C@H](c1ccccc1)[C@@H]1CN2CCC1CC2)c1c(Cl)ccc(C(F)(F)F)c1Cl | – | 1.24 | 0.995 | 0.425 | 0.38
CCC(C)(c1ccc(O)cc1)c1ccc(O)cc1 [Bisphenol B] | – | 1.11 | 0.969 | 0.999 | 0.0398
CC(C)Oc1cc(-n2nc(C(C)(C)C)oc2=O)c(Cl)cc1Cl [Oxadiazon] | 0.838 | 0.914 | 1.14 | 1.09 | 0.281
O=[As][O-].[Na+] [Sodium arsenite] | 1.25 | 0.998 | 0.538 | – | –
O=[N+]([O-])c1ccc(Cl)cc1 [1-Chloro-4-nitrobenzene] | – | 1.04 | 1.2 | 1.02 | 1.38
CC(C)(O)c1cnn2c(-c3ccc(F)c(-c4c(F)cccc4C#N)c3)cnc2n1 | – | 1.06 | 0.767 | 0.811 | 0.559
O=C(O)c1nc(Cl)ccc1Cl [Clopyralid] | 1.17 | 1.81 | 1.02 | 0.988 | 1.12
CC(C)C1(C)N=C(c2nc3ccccc3cc2C(=O)O)NC1=O (stereo not drawn) [Imazaquin] | 0.867 | 0.916 | 1.12 | 1.04 | 1.23
CN(C)c1nc(=O)n(C2CCCCC2)c(=O)n1C [Hexazinone] | 1.04 | 1.28 | 1.13 | 1.31 | 1.31
CCCCCCCCCc1ccc(O)cc1 [4-Nonylphenol] | – | 0.995 | 0.971 | 1.16 | 0.953
CC(C)(c1ccccc1)c1ccc(O)cc1 [4-Cumylphenol] | – | 0.985 | 1.25 | 1.06 | –
CCCN(CCC)c1c([N+](=O)[O-])cc(S(N)(=O)=O)cc1[N+](=O)[O-] [Oryzalin] | 0.986 | 1.11 | 0.982 | 1.26 | 0.391
O=C(Oc1ccc(Br)cc1)N1CCN2CCC1CC2 | – | 1.11 | 0.988 | 1.09 | 0.334
Cc1ccccc1N [2-Methylaniline] | – | 0.986 | 0.825 | 1.14 | 1.03

Compound | Wnt reporter firefly/Renilla luciferase ratio (concentration: 0.01 uM) | Wnt reporter firefly/Renilla luciferase ratio (concentration: 0.1 uM) | Wnt reporter firefly/Renilla luciferase ratio (concentration: 1 uM) | Wnt reporter firefly/Renilla luciferase ratio (concentration: 10 uM) | Wnt reporter firefly/Renilla luciferase ratio (concentration: 100 uM)
Cc1ccccc1O [o-Cresol] | – | 1.01 | 0.966 | 1.1 | 1.15
Cc1ccc(/N=C/N(C)/C=N/c2ccc(C)cc2C)c(C)c1 [Amitraz] | 1.05 | 1.33 | 1.21 | 1.03 | –
CCNc1nc(Cl)nc(NCC)n1 [Simazine] | 1 | 1.19 | 1.01 | 1.06 | 1.52
O=[N+]([O-])c1ccccc1 [Nitrobenzene] | – | 0.922 | 0.907 | 1.31 | 1.49
Cc1sc2c(c1C)C(c1ccc(Cl)cc1)=NC(CC(=O)OC(C)(C)C)c1nnc(C)n1-2 (racemic) | 0.31 | 0.189 | 0.19 | 0.159 | 0.255
O=C(O)C(F)(F)C(F)(F)C(F)(F)C(F)(F)C(F)(F)C(F)(F)C(F)(F)F | – | 1.71 | – | – | –
C=C(C)C(=O)[O][Sn]([CH2]CCC)([CH2]CCC)[CH2]CCC [Tributyltin methacrylate] | – | 0.639 | 0.638 | 0.679 | –
O=NN(c1ccccc1)c1ccccc1 [N-Nitrosodiphenylamine] | – | 1.58 | 0.967 | 1.37 | 0.944
CCCN(CCC)c1c([N+](=O)[O-])cc(C(F)(F)F)cc1[N+](=O)[O-] [Trifluralin] | 0.696 | 0.895 | 0.886 | 0.94 | 1.1
CNC(=O)ON=CC(C)(C)SC [Aldicarb] | 1.15 | 1.15 | 1.07 | 1.38 | 1.49
CCCN(CCC)N=O [N-Nitrosodipropylamine] | – | 1.18 | 0.939 | 1.15 | 1.06
COP(=S)(OC)Oc1nc(Cl)c(Cl)cc1Cl [Chlorpyrifos-methyl] | 0.792 | 0.841 | 1.02 | 1.18 | 0.905
CCCCC(O)(Cn1cncn1)c1ccc(Cl)cc1Cl (stereo not drawn) [Hexaconazole] | 0.917 | 0.897 | 1 | 0.919 | 0.397
ClC1=C(Cl)C2(Cl)C3C(Cl)C(Cl)CC3C1(Cl)C2(Cl)Cl (stereo not drawn) [Chlordane] | – | 0.951 | 1.02 | 1.34 | 1.4
CC1C(c2ccc(Cl)cc2)SC(=O)N1C(=O)NC1CCCCC1 (stereo not drawn) [Hexythiazox] | 1.1 | 1.15 | 0.988 | 0.99 | 0.197
Clc1cccc(Cl)c1 [1,3-Dichlorobenzene] | – | – | – | – | 1.77
COC(=O)N(OC)c1ccccc1COc1ccn(-c2ccc(Cl)cc2)n1 [Pyraclostrobin] | 0.779 | 0.977 | 0.555 | 0.524 | 0.536
N#CN [Cyanamide] | 1.07 | 1.11 | 1.33 | 1.1 | 1.18
O=S(=O)([O-])C(F)(F)C(F)(F)C(F)(F)C(F)(F)C(F)(F)C(F)(F)F.[K+] | – | 1.21 | 0.967 | 1.07 | 1.21
CC(c1ccc(O)cc1)(c1ccc(O)cc1)c1ccc(O)cc1 [4,4',4"-Ethane-1,1,1-triyltriphenol] | – | 0.816 | 0.754 | 0.745 | –
O=C(NC(=O)c1cc(F)c(F)cc1Cl)Nc1cc(F)ccc1N1CCC(C(=O)O)CC1 | – | 1.08 | 1.29 | 0.978 | 0.514

Individual results from the list.
CNC(=O)ON=CC(C)(C)SC [Aldicarb] – Wnt reporter firefly/Renilla luciferase ratio (concentration: 100 uM): 1.49
CC1C(c2ccc(Cl)cc2)SC(=O)N1C(=O)NC1CCCCC1 (stereo not drawn) [Hexythiazox] – Wnt reporter firefly/Renilla luciferase ratio (concentration: 10 uM): 0.99
